Drawing on publication PMC12029333, this text covers binding for twelve molecules.

Results are given in words; binding and its absence hold for the method and conditions named. In cells and extracts the contact can be indirect. These calls come from enrichment with a bait or labelling near it, and not all partners need be listed. Tags and fused reporters may be left off the sequences shown.

The target in the test is T1, GST-PrkC (Serine/threonine-protein kinase PrkC) (Bacillus subtilis str. 168) (UniProt O34507).
T1 sequence: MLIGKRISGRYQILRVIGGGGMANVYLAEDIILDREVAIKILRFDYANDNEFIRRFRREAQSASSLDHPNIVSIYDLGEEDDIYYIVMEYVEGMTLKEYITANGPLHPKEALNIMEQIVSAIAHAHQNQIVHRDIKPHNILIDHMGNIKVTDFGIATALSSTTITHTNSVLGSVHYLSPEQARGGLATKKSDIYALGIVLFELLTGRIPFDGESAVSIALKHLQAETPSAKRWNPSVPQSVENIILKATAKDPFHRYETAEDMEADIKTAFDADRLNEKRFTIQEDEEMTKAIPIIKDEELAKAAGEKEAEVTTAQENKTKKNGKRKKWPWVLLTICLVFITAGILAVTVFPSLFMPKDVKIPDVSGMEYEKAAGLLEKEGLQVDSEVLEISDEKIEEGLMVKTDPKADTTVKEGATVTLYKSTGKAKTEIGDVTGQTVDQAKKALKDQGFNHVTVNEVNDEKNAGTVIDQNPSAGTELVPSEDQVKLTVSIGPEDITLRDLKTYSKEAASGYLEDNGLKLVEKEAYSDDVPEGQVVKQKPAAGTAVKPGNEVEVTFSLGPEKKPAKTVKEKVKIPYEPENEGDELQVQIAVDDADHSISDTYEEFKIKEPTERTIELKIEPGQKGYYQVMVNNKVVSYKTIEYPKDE
Nature of the test: affinity purification with mass spectrometry; GST-PrkC on glutathione resin incubated with B. subtilis spore lysate at 4 °C; resin washed; bound proteins eluted with 20 mM reduced glutathione; eluate digested with trypsin and analysed by LC-MS/MS; hits filtered at 1% FDR, >=2 unique peptides; only the target purified.

B1: Manganese transport system ATP-binding protein MntB (protein, UniProt O34338 1-250)
chain: MFPVELDNVTVAYHKKPVLQDISLQVPEGKLIGIIGPNGAGKSTLIKTILGLVPRASGDISIYGKDYKDQRTRIGYVPQRGSVDWDFPTSPLDVVLMGRYGRIGLLKRPKKADVEMAKAALTKVGMHDYAKRQISQLSGGQQQRVFLARALCQNADIYFMDEPFAGVDAATERAIMTLLAELKEKGKTVLVVHHDLQTAEDYFDWILLLHLRKIAFGPTENVFTIENLQKTYGGRLTFLKDKVLAEGHKE
Consider B1, for which the binding result was “binds”.

B2: Beta-hexosaminidase (protein, UniProt P40406 17-642)
chain: CFFGARQTEASASKRAIDANQIVNRMSLDEKLGQMLMPDFRNWQKEGESSPQALTKMNDEVASLVKKYQFGGIILFAENVKTTKQTVQLTDDYQKASPKIPLMLSIDQEGGIVTRLGEGTNFPGNMALGAARSRINAYQTGSIIGKELSALGINTDFSPVVDINNNPDNPVIGVRSFSSNRELTSRLGLYTMKGLQRQDIASALKHFPGHGDTDVDSHYGLPLVSHGQERLREVELYPFQKAIDAGADMVMTAHVQFPAFDDTTYKSKLDGSDILVPATLSKKVMTGLLRQEMGFNGVIVTDALNMKAIADHFGQEEAVVMAVKAGVDIALMPASVTSLKEEQKFARVIQALKEAVKNGDIPEQQINNSVERIISLKIKRGMYPARNSDSTKEKIAKAKKIVGSKQHLKAEKKLAEKAVTVLKNEQHTLPFKPKKGSRILIVAPYEEQTASIEQTIHDLIKRKKIKPVSLSKMNFASQVFKTEHEKQVKEADYIITGSYVVKNDPVVNDGVIDDTISDSSKWATVFPRAVMKAALQHNKPFVLMSLRNPYDAANFEEAKALIAVYGFKGYANGRYLQPNIPAGVMAIFGQAKPKGTLPVDIPSVTKPGNTLYPLGYGLNIKTGRPL
For the molecule B2, the binding entry is reported as “binds”.

B3: Probable glycine dehydrogenase (decarboxylating) subunit 1 (protein, UniProt P54376 1-448)
chain: MKHRYLPATEKDKQEMLATIGVSSIDDLFADIPENVKYKKEHQIKKAKSETELTRELTKLASKNRDTVQYASFLGAGVYDHYQPVIVDHVISRSEFYTAYTPYQPEISQGELQAIFEFQTMICELTGMDIANSSMYDGGTALAEAAMLASGHTKKKKIVVSKTVHPESREVLKTYAKGQYIDVVEVPAADGVTDLDALRQTVCENTAAVIVQYPNFFGRIEPLKDIEPIAHQGKSMFIVSANPLALGLLTPPGKFQSDIVVGDAQPFGIPSAYGGPHCGFFAVTKKLMRKVPGRLVGQTEDENGKRGFVLTLQAREQHIRRDKATSNICSNQALNALAASVAMTALGKNGVKDIARQNLLKANYAKQEAKKAGLTVMFDGPMFNEFVIKLDEPVRAVNKRLLAKGMIGGYDLGLTYPELDCHMLIAVTELRTKEEIDALIQELGDRHE
Turning to B3, the binding result is “binds”.

B4: Probable peptidoglycan glycosyltransferase FtsW (protein, UniProt O07639 1-403)
chain: MLKKMLKSYDYSLIFAIVLLCGFGLVMVYSSSMITAVSRYGVSSNFFFMRQLFALIAGGALFILMALFPYKALAHQKFQKGILLVSVLALISLFVFGHVAGNAQSWFKIGGMSIQPGEFVKLVVILYLAAVYAKKQSYIDHLLTGVAPPVVMTLIICGLIAMQPDFGTAMIIGLIATCMILCSGFSGKTLVRLVILGGIVFILVSPIIYLNQDKILTEGRLARFESLEDPFKYANSSGLQVINSYYAISSGGIFGLGLGESIQKYGYLPESHTDFIMAVIAEELGIFGVLFVIFLLGFVVIKGFYIARKCEDPFGSLLAIGISSMIAIQSFINLGGVSGLIPITGVTLPFISYGGSSLVLLLGSMGILANISMFVKYSENKKKKEPLAPKGMKKKQLKKTVYL
In the case of B4, the binding result was “binds”.

B5: 3-oxoacyl-[acyl-carrier-protein] reductase FabG (protein, UniProt P51831 1-246)
chain: MLNDKTAIVTGASRGIGRSIALDLAKSGANVVVNYSGNEAKANEVVDEIKSMGRKAIAVKADVSNPEDVQNMIKETLSVFSTIDILVNNAGITRDNLIMRMKEDEWDDVININLKGVFNCTKAVTRQMMKQRSGRIINVSSIVGVSGNPGQANYVAAKAGVIGLTKSSAKELASRNITVNAIAPGFISTDMTDKLAKDVQDEMLKQIPLARFGEPSDVSSVVTFLASEGARYMTGQTLHIDGGMVM
For B5, the binding entry is recorded as “binds”.

B6: Pectin lyase (protein, UniProt O34819 25-345)
chain: AVDFPNTSTNGLLGFAGNAKNEKGISKTGTTGGKNGQIVYIQSVNDLKTHLGGSTPKILVLQNDLSASAKTTVTIGSNKTLVGSYAKKTLKNIYLTTSSAFGNVIFQNLTFEHSPQINGNNDIQLYLDSGMNYWIDHVTFSGHSYNASGSDLDKLVYIGKSADYITISNSKFANHKYGLILGYPDDSQHQYDGYPHMTIANNYFENLYVRGPGLMRYGYFHVKNNYSNNFNQAITIATKAKIYSEYNYFGKGSEKGGILDDKGTGYFKDIGSYPSLNKQTSPLTSWNPGSNYSYRVQTPEYTKEFVTKYAGSQSTTLVFGY
As for B6, the binding entry is “binds”.

B7: Penicillin-binding protein 1F (protein, UniProt P38050 1-714)
chain: MFKIKKKKLFIPIIILVLTAFLALIGYISIIFLGHYVIDEKKLILHASSKIVDQNGDEVASLYTENREPVSINEIPKQVREAFIAVEDKRFYEHHGIDAKSVGRAVYRDILAGGKVEGGSTITQQLAKNIFLTHDKTFLRKTKEVIIAINLERDYSKDKLLEMYLNQLYFGHGVYGIQAASHYYFNKEVKDLTVSEGAVLAAIPKAPSTYSPILHPDKNKERRDTILGMMNDQGYISAKEAVTAQGRTLGLHVKKQSETPWFDSYIDLVIKEAEDKYSISGEQLLQGGYTIKVPLDSKLQKTAYQVMKEGSYYPGTDQNAEGSAVFINNKTGGVEAAIGGRDYTSKGYNRVTAVRQPGSTFKPLAVYGPAMQEKKFKPYSLLKDELQSYGDYTPKNYDSRYEGEVTMSDAITYSKNAPAVWTLNEIGVETGKSYLKANGIDIPDEGLALALGGLEKGVSPLQLAGAFHTFAANGTYTEPFFISSIIDEDGETIADHKEEGKRVFSKQTSWNMTRMLQQVVKKGTATSGTYHGDLAGKTGSTSYTGVSGATKDAWFAGYTPKITGAVWMGYDKTDQNHYLKAGSSYPTRLFKDILTQAGETGHVFTKPKNVKELESPIELKPVKTLTADYTFKAAGLFTIELKWDAQEDDRAVYRIYVNKDGEETLLDSVEGKGSYEIPYANLFSGASYKIVPYNTQTKREGEGTDYVQPKLFSS
Take B7: the binding result is given as “binds”.

B8: Acyl-CoA dehydrogenase (protein, UniProt P45867 1-379)
chain: MNFSLSEEHEMIRKLVRDFAKHEVAPTAAERDEQERFDRELFREMANLGLTGIPWPEDYGGIGSDYLAYVIAVEELSKVCASTGVTLSAHISLCSWPLFAFGTEEQKTEYLTQLALGEKIGAFALTEAGSGSDAGSMKTTAERIGDDYVLNGSKVFITNGGVADIYIVFAVTDPEKKKKGVTAFIVEKDFEGFFTGKKEKKLGIRSSPTTEIMFEDCVVPASKRLGEEGEGFKIAMKTLDGGRNGIAAQAVGIAQGALDAALQYAKERKQFGKSIAEQQGIAFKLADMATMIEASRLLTYQAAWLESSGLPYGKASAMSKLMAGDTAMKVTTEAVQIFGGYGYTKDYPVERYMRDAKITQIYEGTQEIQRLVISRMLAD
Consider B8, for which the binding result is “binds”.

B9: 2-hydroxy-3-keto-5-methylthiopentenyl-1-phosphate phosphatase (protein, UniProt O31667 1-235)
chain: MTTRKPFIICDFDGTITMNDNIINIMKTFAPPEWMALKDGVLSKTLSIKEGVGRMFGLLPSSLKEEITSFVLEDAKIREGFREFVAFINEHEIPFYVISGGMDFFVYPLLEGIVEKDRIYCNHASFDNDYIHIDWPHSCKGTCSNQCGCCKPSVIHELSEPNQYIIMIGDSVTDVEAAKLSDLCFARDYLLNECREQNLNHLPYQDFYEIRKEIENVKEVQEWLQNKNAGESSLK
For the molecule B9, the binding entry is reported as “binds”.

B10: Dihydrolipoyl dehydrogenase (protein, UniProt O34324 1-458)
chain: MTLAIIGGGPAGYAAAVSAAQQGRNVLLIDKGKLGGTCLNEGCIPTKSLLESANVLDKIKHADSFGIELPAGAISVDWSKMQSRKQQVVSQLVQGVQYLMKKNQIQVVKGTASFLSERKLLIEGENGKEIREADQVLIASGSEPIELPFAPFDGEWILDSKDALSLSEIPSSLVIVGGGVIGCEYAGLFARLGSQVTIIETADRLIPAEDEDIARLFQEKLEEDGVEVHTSSRLGRVDQTAKTAIWKSGQREFKTKADYVLVAIGRKPRLDGLQLEQAGVDFSPKGIPVNGHMQTNVPHIYACGDAIGGIQLAHAAFHEGIIAASHASGRDVKINEKHVPRCIYTSPEIACIGMTERQARSIYGDVKIGEFSFSANGKALIKQQAEGKVKIMAEPEFGEIVGVSMIGPDVTELIGQAAAIMNGEMTADMAEHFIAAHPTLSETLHEALLSTIGLAVHA
Take B10: the binding entry is “binds”.

B11: Uroporphyrinogen-III synthase (protein, UniProt P21248 1-262)
chain: MENDFPLKGKTVLVTRNKAQAASFQQKVEALGGKAVLTSLITFRRALPNDVAEQVREDLAAPGWLVFTSVNGADFFFSYLKENQLILPAHKKIAAVGEKTARRLKMHNVSVDVMPQEYIAEQLADALKQHAEPGETITVMKGNLSRDVIKQELVPLGFEVKEWVLYETIPDEEGIEALKDAAGQYSFDYVTFTSSSTVHTFMHVLGEELKKWKANGTACISIGPLTNDALLTYGITSHTPDTFTIDGMLELMCSMSREEERI
On to B11, for which the binding entry is listed as “binds”.

B12: Peptidoglycan-N-acetylmuramic acid deacetylase PdaC (protein, UniProt O34798 1-467)
chain: MLAKRIKWFHVLIAVVCVVGLIGFFHNHSLKKETVMNKVRTDSQYGNVEIATLVNDGKTFNYAVNYPVFKNEKMDSALKRFAEKEVRQFQKETKDVDQEHTTKRNELNVDYKIVHYAKQTVAIVFNEYKYIGGAHGQTVKKTFNYDFSKQAFLSIDDIFKEDADYLHKLSLIAYHELKKNKDIAADDALLKEGTAPKKENFSRFAIKEDYIELYFDTYQVAAGYLGEQSIAIKKSLLKDILKEQYIDKAKNKNKIKEQKPKHEVISLPKEETVDPNQKVIALTFDDGPNPATTNQILDSLKKYKGHATFFVLGSRVQYYPETLIRMLKEGNEVGNHSWSHPLLTRLSVKEALKQINDTQDIIEKISGYRPTLVRPPYGGINDELRSQMKMDVALWDVDPEDWKDRNKKTIVDRVMNQAGDGRTILIHDIYRTSADAADEIIKKLTDQGYQLVTVSQLEEVKKQREAK
For the molecule B12, the binding result is “binds”.
